These are yes or no findings as the source states them, for the method shown. In cells and extracts the contact can be indirect. A yes stands for co-enrichment or nearness to the bait. Other partners may have been found.
B1: Ddx46 (protein, UniProt Q7L014 1-1031)
chain: MGRESRHYRKRSASRGRSGSRSRSRSPSDKRSKRGDDRRSRSRDRDRRRERSRSRDKRRSRSRDRKRLRRSRSRERDRSRERRRSRSRDRRRSRSRSRGRRSRSSSPGNKSKKTENRSRSKEKTDGGESSKEKKKDKDDKEDEKEKDAGNFDQNKLEEEMRKRKERVEKWREEQRKKAMENIGELKKEIEEMKQGKKWSLEDDDDDEDDPAEAEKEGNEMEGEELDPLDAYMEEVKEEVKKFNMRSVKGGGGNEKKSGPTVTKVVTVVTTKKAVVDSDKKKGELMENDQDAMEYSSEEEEVDLQTALTGYQTKQRKLLEPVDHGKIEYEPFRKNFYVEVPELAKMSQEEVNVFRLEMEGITVKGKGCPKPIKSWVQCGISMKILNSLKKHGYEKPTPIQTQAIPAIMSGRDLIGIAKTGSGKTIAFLLPMFRHIMDQRSLEEGEGPIAVIMTPTRELALQITKECKKFSKTLGLRVVCVYGGTGISEQIAELKRGAEIIVCTPGRMIDMLAANSGRVTNLRRVTYVVLDEADRMFDMGFEPQVMRIVDNVRPDRQTVMFSATFPRAMEALARRILSKPIEVQVGGRSVVCSDVEQQVIVIEEEKKFLKLLELLGHYQESGSVIIFVDKQEHADGLLKDLMRASYPCMSLHGGIDQYDRDSIINDFKNGTCKLLVATSVAARGLDVKHLILVVNYSCPNHYEDYVHRAGRTGRAGNKGYAYTFITEDQARYAGDIIKALELSGTAVPPDLEKLWSDFKDQQKAEGKIIKKSSGFSGKGFKFDETEQALANERKKLQKAALGLQDSDDEDAAVDIDEQIESMFNSKKRVKDMAAPGTSSVPAPTAGNAEKLEIAKRLALRINAQKNLGIESQDVMQQATNAILRGGTILAPTVSAKTIAEQLAEKINAKLNYVPLEKQEEERQDGGQNESFKRYEEELEINDFPQTARWKVTSKEALQRISEYSEAAITIRGTYFPPGKEPKEGERKIYLAIESANELAVQKAKAEITRLIKEELIRLQNSYQPTNKGRYKVL
B2: Tex10 (protein, UniProt Q9NXF1 1-929)
chain: MTKKRKRQHDFQKVKLKVGKKKPKLQNATPTNFKTKTIHLPEQLKEDGTLPTNNRKLNIKDLLSQMHHYNAGVKQSALLGLKDLLSQYPFIIDAHLSNILSEVTAVFTDKDANVRLAAVQLLQFLAPKIRAEQISPFFPLVSAHLSSAMTHITEGIQEDSLKVLDILLEQYPALITGRSSILLKNFVELISHQQLSKGLINRDRSQSWILSVNPNRRLTSQQWRLKVLVRLSKFLQALADGSSRLRESEGLQEQKENPHATSNSIFINWKEHANDQQHIQVYENGGSQPNVSSQFRLRYLVGGLSGVDEGLSSTENLKGFIEIIIPLLIECWVEAVPPQLATPVGNGIEREPLQVMQQVLNIISLLWKLSKQQDETHKLESWLRKNYLIDFKHHFMSRFPYVLKEITKHKRKEPNKSIKHCTVLSNNIDHLLLNLTLSDIMVSLANASTLQKDCSWIEMIRKFVTETLEDGSRLNSKQLNRLLGVSWRLMQIQPNREDTETLIKAVYTLYQQRGLILPVRTLLLKFFSKIYQTEELRSCRFRYRSKVLSRWLAGLPLQLAHLGSRNPELSTQLIDIIHTAAARANKELLKSLQATALRIYDPQEGAVVVLPADSQQRLVQLVYFLPSLPADLLSRLSRCCIMGRLSSSLAAMLIGILHMRSSFSGWKYSAKDWLMSDVDYFSFLFSTLTGFSKEELTWLQSLRGVPHVIQTQLSPVLLYLTDLDQFLHHWDVTEAVFHSLLVIPARSQNFDILQSAISKHLVGLTVIPDSTAGCVFGVICKLLDHTCVVSETLLPFLASCCYSLLYFLLTIEKGEAEHLRKRDKLWGVCVSILALLPRVLRLMLQSLRVNRVGPEELPVVGQLLRLLLQHAPLRTHMLTNAILVQQIIKNITTLKSGSVQEQWLTDLHYCFNVYITGHPQGPSALATVY
B3: Tcof1 (protein, UniProt Q13428 1-1488)
chain: MAEARKRRELLPLIYHHLLRAGYVRAAREVKEQSGQKCFLAQPVTLLDIYTHWQQTSELGRKRKAEEDAALQAKKTRVSDPISTSESSEEEEEAEAETAKATPRLASTNSSVLGADLPSSMKEKAKAETEKAGKTGNSMPHPATGKTVANLLSGKSPRKSAEPSANTTLVSETEEEGSVPAFGAAAKPGMVSAGQADSSSEDTSSSSDETDVEGKPSVKPAQVKASSVSTKESPARKAAPAPGKVGDVTPQVKGGALPPAKRAKKPEEESESSEEGSESEEEAPAGTRSQVKASEKILQVRAASAPAKGTPGKGATPAPPGKAGAVASQTKAGKPEEDSESSSEESSDSEEETPAAKALLQAKASGKTSQVGAASAPAKESPRKGAAPAPPGKTGPAVAKAQAGKREEDSQSSSEESDSEEEAPAQAKPSGKAPQVRAASAPAKESPRKGAAPAPPRKTGPAAAQVQVGKQEEDSRSSSEESDSDREALAAMNAAQVKPLGKSPQVKPASTMGMGPLGKGAGPVPPGKVGPATPSAQVGKWEEDSESSSEESSDSSDGEVPTAVAPAQEKSLGNILQAKPTSSPAKGPPQKAGPVAVQVKAEKPMDNSESSEESSDSADSEEAPAAMTAAQAKPALKIPQTKACPKKTNTTASAKVAPVRVGTQAPRKAGTATSPAGSSPAVAGGTQRPAEDSSSSEESDSEEEKTGLAVTVGQAKSVGKGLQVKAASVPVKGSLGQGTAPVLPGKTGPTVTQVKAEKQEDSESSEEESDSEEAAASPAQVKTSVKKTQAKANPAAARAPSAKGTISAPGKVVTAAAQAKQRSPSKVKPPVRNPQNSTVLARGPASVPSVGKAVATAAQAQTGPEEDSGSSEEESDSEEEAETLAQVKPSGKTHQIRAALAPAKESPRKGAAPTPPGKTGPSAAQAGKQDDSGSSSEESDSDGEAPAAVTSAQVIKPPLIFVDPNRSPAGPAATPAQAQAASTPRKARASESTARSSSSESEDEDVIPATQCLTPGIRTNVVTMPTAHPRIAPKASMAGASSSKESSRISDGKKQEGPATQVSKKNPASLPLTQAALKVLAQKASEAQPPVARTQPSSGVDSAVGTLPATSPQSTSVQAKGTNKLRKPKLPEVQQATKAPESSDDSEDSSDSSSGSEEDGEGPQGAKSAHTLGPTPSRTETLVEETAAESSEDDVVAPSQSLLSGYMTPGLTPANSQASKATPKLDSSPSVSSTLAAKDDPDGKQEAKPQQAAGMLSPKTGGKEAASGTTPQKSRKPKKGAGNPQASTLALQSNITQCLLGQPWPLNEAQVQASVVKVLTELLEQERKKVVDTTKESSRKGWESRKRKLSGDQPAARTPRSKKKKKLGAGEGGEASVSPEKTSTTSKGKAKRDKASGDVKEKKGKGSLGSQGAKDEPEEELQKGMGTVEGGDQSNPKSKKEKKKSDKRKKDKEKKEKKKKAKKASTKDSESPSQKKKKKKKKTAEQTV
B4: Prpf3 (protein, UniProt O43395 1-683)
chain: MALSKRELDELKPWIEKTVKRVLGFSEPTVVTAALNCVGKGMDKKKAADHLKPFLDDSTLRFVDKLFEAVEEGRSSRHSKSSSDRSRKRELKEVFGDDSEISKESSGVKKRRIPRFEEVEEEPEVIPGPPSESPGMLTKLQIKQMMEAATRQIEERKKQLSFISPPTPQPKTPSSSQPERLPIGNTIQPSQAATFMNDAIEKARKAAELQARIQAQLALKPGLIGNANMVGLANLHAMGIAPPKVELKDQTKPTPLILDEQGRTVDATGKEIELTHRMPTLKANIRAVKREQFKQQLKEKPSEDMESNTFFDPRVSIAPSQRQRRTFKFHDKGKFEKIAQRLRTKAQLEKLQAEISQAARKTGIHTSTRLALIAPKKELKEGDIPEIEWWDSYIIPNGFDLTEENPKREDYFGITNLVEHPAQLNPPVDNDTPVTLGVYLTKKEQKKLRRQTRREAQKELQEKVRLGLMPPPEPKVRISNLMRVLGTEAVQDPTKVEAHVRAQMAKRQKAHEEANAARKLTAEQRKVKKIKKLKEDISQGVHISVYRVRNLSNPAKKFKIEANAGQLYLTGVVVLHKDVNVVVVEGGPKAQKKFKRLMLHRIKWDEQTSNTKGDDDEESDEEAVKKTNKCVLVWEGTAKDRSFGEMKFKQCPTENMAREHFKKHGAEHYWDLALSESVLESTD
B5: U2af1 (protein, UniProt Q01081 1-240)
chain: MAEYLASIFGTEKDKVNCSFYFKIGACRHGDRCSRLHNKPTFSQTIALLNIYRNPQNSSQSADGLRCAVSDVEMQEHYDEFFEEVFTEMEEKYGEVEEMNVCDNLGDHLVGNVYVKFRREEDAEKAVIDLNNRWFNGQPIHAELSPVTDFREACCRQYEMGECTRGGFCNFMHLKPISRELRRELYGRRRKKHRSRSRSRERRSRSRDRGRGGGGGGGGGGGGRERDRRRSRDRERSGRF
B6: Nop58 (protein, UniProt Q9Y2X3 1-529)
chain: MLVLFETSVGYAIFKVLNEKKLQEVDSLWKEFETPEKANKIVKLKHFEKFQDTAEALAAFTALMEGKINKQLKKVLKKIVKEAHEPLAVADAKLGGVIKEKLNLSCIHSPVVNELMRGIRSQMDGLIPGVEPREMAAMCLGLAHSLSRYRLKFSADKVDTMIVQAISLLDDLDKELNNYIMRCREWYGWHFPELGKIISDNLTYCKCLQKVGDRKNYASAKLSELLPEEVEAEVKAAAEISMGTEVSEEDICNILHLCTQVIEISEYRTQLYEYLQNRMMAIAPNVTVMVGELVGARLIAHAGSLLNLAKHAASTVQILGAEKALFRALKSRRDTPKYGLIYHASLVGQTSPKHKGKISRMLAAKTVLAIRYDAFGEDSSSAMGVENRAKLEARLRTLEDRGIRKISGTGKALAKTEKYEHKSEVKTYDPSGDSTLPTCSKKRKIEQVDKEDEITEKKAKKAKIKVKVEEEEEEKVAEEEETSVKKKKKRGKKKHIKEEPLSEEEPCTSTAIASPEKKKKKKKKRENED

These binders were tested against Biotin-FOXC1 (mouse) (UniProt Q61572) (assay: affinity purification with mass spectrometry; streptavidin-agarose precipitation of biotinylated FOXC1 from nuclear extract of stable HEK293T cells (293T-Biotin-FOXC1); IP350 buffer (350 mM NaCl, 20 mM Tris-HCl pH 7.5, 0.5% NP40, 1 mM EDTA, 10% glycerin); SDS-PAGE, LC-ESI-MS/MS; proteins of the 293T-Biotin control deducted).

binding, binds:
B1, B2, B3, B4, B5, B6

From paper PMC7956269
